No constants are given. Whether binding was seen depends on the method and setting. Binding seen in cells or lysates may run through a third protein.
Target: FLAG-tagged full-length EZH2 with mutations of conserved PIP box amino acids (EZH2∆PIP) (UniProt Q15910)
Assay: co-IP; 293T cells transfected with FLAG-tagged EZH2, EZH2∆SET or EZH2∆PIP; IP with FLAG antibody, blot for endogenous PCNA; IgG as control

By UniProt entry, the sequences of proteins in these tests, tags left out. Where a name states a change or a piece, a line headed by the entry shows the natural chain unless it says otherwise.
UniProt Q15910: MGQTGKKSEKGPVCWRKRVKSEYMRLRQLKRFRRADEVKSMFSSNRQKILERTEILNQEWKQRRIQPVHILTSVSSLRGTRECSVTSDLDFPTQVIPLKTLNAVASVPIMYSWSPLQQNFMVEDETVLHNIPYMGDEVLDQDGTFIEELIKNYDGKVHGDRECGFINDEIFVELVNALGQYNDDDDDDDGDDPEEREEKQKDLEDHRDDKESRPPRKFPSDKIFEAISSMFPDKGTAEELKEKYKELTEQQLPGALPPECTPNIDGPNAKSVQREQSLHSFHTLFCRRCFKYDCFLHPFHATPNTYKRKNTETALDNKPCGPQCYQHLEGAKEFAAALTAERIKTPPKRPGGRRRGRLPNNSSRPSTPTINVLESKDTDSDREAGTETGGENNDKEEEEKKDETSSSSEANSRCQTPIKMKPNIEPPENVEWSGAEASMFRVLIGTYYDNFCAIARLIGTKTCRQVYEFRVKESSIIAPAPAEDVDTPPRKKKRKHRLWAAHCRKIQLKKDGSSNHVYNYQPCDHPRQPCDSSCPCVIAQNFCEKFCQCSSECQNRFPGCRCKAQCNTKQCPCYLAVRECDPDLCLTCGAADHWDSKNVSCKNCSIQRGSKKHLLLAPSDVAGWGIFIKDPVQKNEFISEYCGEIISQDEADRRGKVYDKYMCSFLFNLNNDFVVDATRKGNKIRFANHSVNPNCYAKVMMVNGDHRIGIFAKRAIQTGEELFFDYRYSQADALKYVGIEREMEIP
UniProt P12004: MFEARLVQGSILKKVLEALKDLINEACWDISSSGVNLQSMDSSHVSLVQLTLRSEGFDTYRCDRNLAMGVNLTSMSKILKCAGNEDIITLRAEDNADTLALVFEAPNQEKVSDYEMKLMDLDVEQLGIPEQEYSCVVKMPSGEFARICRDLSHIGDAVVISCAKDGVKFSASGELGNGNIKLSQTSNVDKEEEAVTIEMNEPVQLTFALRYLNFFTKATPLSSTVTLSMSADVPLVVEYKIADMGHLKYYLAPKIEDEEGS

Proliferating cell nuclear antigen (PCNA), endogenous (from UniProt P12004 1-261)
binding: no binding
